# These are yes or no findings as the source states them, for the method shown. In cells and extracts the contact can be indirect. Some binding calls cover weakened binding; strength is not graded here. Sequences can lack the tags named with a protein.
# T1: TGR5 fused to a fluorescent protein at the C-terminus, Q8TDU6
# T1 chain: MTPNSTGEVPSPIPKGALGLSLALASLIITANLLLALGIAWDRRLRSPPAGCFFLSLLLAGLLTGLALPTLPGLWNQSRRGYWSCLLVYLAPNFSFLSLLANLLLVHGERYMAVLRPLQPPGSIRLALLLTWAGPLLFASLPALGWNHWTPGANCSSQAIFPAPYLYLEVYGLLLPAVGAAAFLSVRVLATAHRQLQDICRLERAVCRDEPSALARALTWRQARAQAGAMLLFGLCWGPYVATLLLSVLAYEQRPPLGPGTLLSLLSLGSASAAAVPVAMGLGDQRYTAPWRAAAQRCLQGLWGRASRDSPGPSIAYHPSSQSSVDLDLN
# Target: T1, TGR5 fused to a fluorescent protein at …
# Test: FRET or BRET; MFIS-FRET in live Hep2 cells co-transfected with TGR5-GFP (donor) and TGR5-mCherry (acceptor); donor fluorescence lifetime; acceptor titration, EGFP-mCherry ratio 1:1 to 1:20
# Details: remark: other sources report otherwise
binder,measurement,value
"TGR5 fused to a fluorescent protein at the C-terminus, Q8TDU6 1-330 (receptor) MTPNSTGEVPSPIPKGALGLSLALASLIITANLLLALGIAWDRRLRSPPAGCFFLSLLLAGLLTGLALPTLPGLWNQSRRGYWSCLLVYLAPNFSFLSLLANLLLVHGERYMAVLRPLQPPGSIRLALLLTWAGPLLFASLPALGWNHWTPGANCSSQAIFPAPYLYLEVYGLLLPAVGAAAFLSVRVLATAHRQLQDICRLERAVCRDEPSALARALTWRQARAQAGAMLLFGLCWGPYVATLLLSVLAYEQRPPLGPGTLLSLLSLGSASAAAVPVAMGLGDQRYTAPWRAAAQRCLQGLWGRASRDSPGPSIAYHPSSQSSVDLDLN",binding,binds

# From PMC4118445
